The values are deposited in ChEMBL (CHEMBL3988442, “University of Dundee, Small-Polar-MMV Screening Library” (2021)).

Mtb growth Cornell: 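Whole-cell assay for inhibitors of Mycobacterium tuberculosis growth, labelled Cornell in the record; the read-out is not stated. The concentration is filed as 10 mM, unlikely as a test dose, so the dose is not known. The record gives no direction; compounds strong in two other growth screens of this library score well above the rest, so higher reads as stronger inhibition. About 53,000 compounds were tested under these conditions; 1.7% (about 900) showed 50% or more at least once.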
Mtb heat-shock: 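Assay on Mycobacterium tuberculosis, filed only as a heat shock assay from Cornell; the read-out is not stated. The concentration is filed as 10 mM, unlikely as a test dose, so the dose is not known. Higher reads as stronger inhibition (inferred: compounds with an IC50 in retests scored well above the rest). Of about 69,000 compounds tested this way, about 930 (1.4%) reached 50% or more in at least one test.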

Values are the deposited “Percent Effect”, in %.
The controls that fix the scale are not given in the record; negative values are as filed.
The compounds are a random part of those screened.

compound: Cc1cc(C(=O)N2CCc3nc(C4CCCCN4)ncc3C2)cs1.Cl (stereo unspecified)
Mtb growth Cornell: -15.73
Mtb heat-shock: -19.38

compound: O=C(O)C(F)(F)F.O=C(O)C(F)(F)F.[H][C@]12CC(=O)N(Cc3cccc(C)n3)[C@@]1([H])CCN2Cc1cccs1
Mtb growth Cornell: 11.11
Mtb heat-shock: -6.629

compound: O=C1CC2(CCSC2)C(=O)N1Cc1coc(-c2ccc(F)cc2)n1 (stereo unspecified)
Mtb growth Cornell: 33.19
Mtb heat-shock: -60.19

compound: Cc1cccn2cc(CN3CCCC(c4noc(C5CC5)n4)C3)nc12 (stereo unspecified)
Mtb growth Cornell: 40.15
Mtb heat-shock: 100.9

compound: CC(C)Cc1cc(C(=O)NCC(O)c2ccc(F)cc2)n(C)n1 (stereo unspecified)
Mtb growth Cornell: 14.55
Mtb heat-shock: 13.62

compound: CN1CCCCC12Cc1ccccc1CN(C(=O)c1ccccc1)C2 (stereo unspecified)
Mtb heat-shock: 5.067

compound: Cn1cc(I)c(C(=O)NC2CCCC2)n1
Mtb heat-shock: -8.361

compound: [H][C@]12CCN(C(=O)NC)CC[C@@]1([H])S(=O)(=O)N(CCc1cccc(OC)c1)C2
Mtb growth Cornell: -8.334
Mtb heat-shock: -0.1137

compound: CC(O)CN1CCN(Cc2cccc(C(=O)N3CCCCC3)c2)CC1 (stereo unspecified)
Mtb heat-shock: -15.11

compound: CCOC1COC2(CCN(Cc3ccc(C)c(C)c3)CC2)C1.O=C(O)C(F)(F)F (stereo unspecified)
Mtb growth Cornell: -8.807
Mtb heat-shock: 16.07

compound: Cc1cc(C(=O)N2CCCC(n3cncn3)C2)c(C)n1C1CC1 (stereo unspecified)
Mtb heat-shock: 6.942

compound: CCc1nnc(CN(CC)C(=O)C2CC(=O)N(CC)C2)o1 (stereo unspecified)
Mtb growth Cornell: -94.54
Mtb heat-shock: 10.82

compound: CN(Cc1cnn(C)c1)C(=O)CCc1ccc2c(c1)OCO2
Mtb growth Cornell: -9.343
Mtb heat-shock: 5.183

compound: COC(=O)CCC(=O)N1CCC2(CN(Cc3cccc(F)c3)C2)C1
Mtb growth Cornell: -1.825
Mtb heat-shock: -3.556

compound: COc1ccc(CNC[C@H]2COCc3nc4cc(F)ccc4n32)cc1
Mtb heat-shock: -1.41

compound: Cc1cnn(CC2CCCCN2C(=O)c2cc(C(N)=O)cs2)c1 (stereo unspecified)
Mtb heat-shock: -8.552

compound: O=C(NCCNc1cnccn1)N1CCN(c2nccs2)CC1
Mtb growth Cornell: -51.56
Mtb heat-shock: -4.362

compound: CCNC(=O)[C@@H]1CCCN1C1(C(=O)NC)CCC1.Cl
Mtb heat-shock: -5.144

compound: CCc1c(NCc2ccncc2)cnn1CC(C)C
Mtb growth Cornell: 32.08
Mtb heat-shock: -12.57

compound: CN(CCNS(C)(=O)=O)C(=O)c1ccc(Cl)c(Cl)c1
Mtb growth Cornell: -46.4
Mtb heat-shock: 18.09

compound: CC(C)NC(=O)N1CCc2c(CNc3ncccn3)cncc2C1.Cl
Mtb growth Cornell: 17.67
Mtb heat-shock: -26.48

compound: [H][C@@]12CN(C(=O)NC3CC3)C[C@]1([H])C(=O)N(Cc1cccc(F)c1)C2
Mtb growth Cornell: -1.024
Mtb heat-shock: -26.04

compound: [H][C@]12CC[C@]([H])(CN(C(=O)Cc3sc(C)nc3C)C1)N(CC1CC1)C2
Mtb heat-shock: 20.31

compound: Cc1noc(C)c1CN1CCCC1c1nc(-c2ccccc2)no1 (stereo unspecified)
Mtb growth Cornell: 38.62
Mtb heat-shock: -7.341

compound: CC(Cn1ccnc1)NC(=O)NCCN1CCCCCC1=O (stereo unspecified)
Mtb growth Cornell: 3.721
Mtb heat-shock: 11.87

compound: COC(=O)COc1c(F)cc(Br)cc1C(C)=O
Mtb growth Cornell: -28.15
Mtb heat-shock: 2.139

compound: CC(c1ccccn1)N(C)Cc1cc2cc3c(cc2[nH]c1=O)OCO3 (stereo unspecified)
Mtb growth Cornell: -60.96
Mtb heat-shock: 31.43

compound: N#CC1(NC(=O)c2cc(Cl)ccc2OC(F)F)CCOCC1
Mtb growth Cornell: -14.82
Mtb heat-shock: -7.418

compound: Cc1ccnc(C(NC(=O)c2sc(C)nc2C)C2CC2)n1 (stereo unspecified)
Mtb growth Cornell: -4.455
Mtb heat-shock: 14.27

compound: O=C(N[C@@H]1CCC[C@@H](n2ccnc2)[C@@H]1O)c1ccc2c(c1)CCCC2
Mtb growth Cornell: -45.44
Mtb heat-shock: -30.12

compound: CN1Cc2cnn(CC3CCCC3)c2C(COCC2CC2)C1.O=C(O)C(F)(F)F.O=C(O)C(F)(F)F (stereo unspecified)
Mtb growth Cornell: -10.34
Mtb heat-shock: -36.29

compound: COc1ccc(OC)c(C2CCN(C(=O)C3CCS(=O)(=O)CC3)C2)c1 (stereo unspecified)
Mtb growth Cornell: 9.767
Mtb heat-shock: -16.63

compound: Cc1nc(C)n(CCCNc2ncnc(C)c2C)n1
Mtb growth Cornell: 9.549
Mtb heat-shock: -39.9

4 of the entries, repeated:

{"compound": "[H][C@@]12CN(C(=O)NC3CC3)C[C@]1([H])C(=O)N(Cc1cccc(F)c1)C2", "Mtb growth Cornell": -1.024, "Mtb heat-shock": -26.04}
{"compound": "CC(Cn1ccnc1)NC(=O)NCCN1CCCCCC1=O", "stereo": "stereo unspecified", "Mtb growth Cornell": 3.721, "Mtb heat-shock": 11.87}
{"compound": "CN1CCCCC12Cc1ccccc1CN(C(=O)c1ccccc1)C2", "stereo": "stereo unspecified", "Mtb heat-shock": 5.067}
{"compound": "CC(C)NC(=O)N1CCc2c(CNc3ncccn3)cncc2C1.Cl", "Mtb growth Cornell": 17.67, "Mtb heat-shock": -26.48}